# Substitutions are numbered along the chain they refer to. These are yes or no findings as the source states them, for the method shown.
# B1: MZ1 (antibody, V domains shown)
# VH: QVQLQESGPGLVKSSETLSLSCTVSGASISNFYWSWVRQPPGKGLEWMGSIYYTGTITYNPSLKSRLTMSVDTSKNQFSLKLNSVTAADTAVYSCAGLDRFNWNDEGDCWGQGTLVTVFS
# VL: QSVLTQPPSASGTPGQRVTISCSGSRSNLGRNTVNWYQQLPGVAPKLLIYSNNRRPSGVPDRFSGSKSDTSASLAISGLQSEDEADYFCAAWDDSLNGLYVFGTGTKVTVLG
# B2: MZ24 (antibody, V domains shown)
# VH: B1 VH with N31S, F32Y, P40S, I57T, M69I
# VL: B1 VL with N53S, F88Y, K107S
# Target: Isolated ZIKV E domain III (303-404) (Zika virus strain PRVABC59)
# Test: ELISA on isolated ZIKV E DIII
binder,measurement,value
B1,binding,no binding (tested: titrated from 20 µg/ml)
B2,binding,no binding (tested: titrated from 20 µg/ml)

# Reference: patent US20210238262A1
